Here are results for 1 sequence from ChEMBL document CHEMBL3045848, “Microwave-assisted solvent-free synthesis of biologically active novel heterocycles from 3-formylchromones” (2011).

This test deals with Candida albicans. In words: Antifungal activity against Candida albicans IOA-109 at 30 ug/disk after 18 to 48 hr. The format is functional, organism-based.

Consider NYSTATIN, for which the inhibition zone (IZ) came to 20 mm.
